Results are given in words; binding and its absence hold for the method and conditions named. Some binding calls cover weakened binding; strength is not graded here.
Columns and labels:
[1] = target: T1, pro/latent GDF8 (pro-myostatin and latent myostatin), endogenous, in mouse tibialis anterior muscle (mouse) (UniProt O08689); assay: immunofluorescence on cryosectioned TA muscle from healthy mice
T1 sequence: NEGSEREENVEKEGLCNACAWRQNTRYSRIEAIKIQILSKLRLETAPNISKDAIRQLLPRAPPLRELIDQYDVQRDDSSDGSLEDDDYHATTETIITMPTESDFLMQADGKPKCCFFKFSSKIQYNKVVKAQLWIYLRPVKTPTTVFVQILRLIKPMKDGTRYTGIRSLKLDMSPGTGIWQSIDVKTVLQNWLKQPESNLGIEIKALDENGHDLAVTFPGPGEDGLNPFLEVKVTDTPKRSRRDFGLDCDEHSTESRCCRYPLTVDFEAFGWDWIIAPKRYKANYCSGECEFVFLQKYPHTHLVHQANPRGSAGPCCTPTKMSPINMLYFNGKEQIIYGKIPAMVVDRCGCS

[2] = target: T1, pro/latent GDF8 (pro-myostatin and latent myostatin), endogenous, in mouse tibialis anterior muscle (mouse); assay: immunofluorescence on cryosectioned mouse TA muscle, co-stained with laminin
[3] = target: T1, pro/latent GDF8 (pro-myostatin and latent myostatin), endogenous, in mouse tibialis anterior muscle (mouse); assay: immunofluorescence on mouse TA muscle sections probed with Ab10 and anti-laminin (figure legend)
[4] = target: T1, pro/latent GDF8 (pro-myostatin and latent myostatin), endogenous, in mouse tibialis anterior muscle (mouse); assay: immunofluorescence on cryosections of mouse tibialis anterior muscle, Ab10 at 50 µg/mL, anti-human IgG Alexa Fluor 594 secondary, DAPI counterstain
[5] = target: T1, pro/latent GDF8 (pro-myostatin and latent myostatin), endogenous, in mouse tibialis anterior muscle (mouse); assay: immunofluorescence on cryosections of mouse tibialis anterior muscle, Ab10 at 50 µg/mL pre-incubated overnight in blocking buffer alone, DAPI counterstain
proGDF8 (Mus musculus) = target: T2, proGDF8 (Mus musculus) (UniProt O08689); assay: recombinant protein absorption: Ab10 at 50 µg/mL pre-incubated overnight with 10-fold molar excess of recombinant mouse GDF8, then used as primary antibody for immunofluorescence on mouse tibialis anterior sections; read-out is loss of tissue pro/latent GDF8 staining
T2 sequence (proprotein, looked up): T1 sequence

Measured: binding

B1: anti-pro/latent GDF8 antibody, Ab10 (antibody, V domains shown)
VH: EVQLVQSGGGVVQSGRSLRLSCVASGFSFSNYGMHWVRQAPGKGLEWLAFIWYDGSNKWYADSVKGRFTISRDNSKNALYLQMNSLRAEDTAVYYCARDRYSSSWGGGFDYWGQGTVLTVSS
VL: NFMLTQPHSVSESPGRTVTIPCSGRGGSIASDSVQWYQQRPGSAPTTIIYEDNQRPSGVPDRFSGSVDSSSNSASLTISGLRTEDEADYYCQSYDASSLWVFGGKTKLTVLG
notes: The VL as printed runs into the start of the lambda constant region
binds: all assays above
